Results taken from article PMC10724200, “A peptide derived from interleukin-10 exhibits potential anticancer activity and can facilitate cell targeting of gold nanoparticles loaded with anticancer therapeutics” (Communications Chemistry, 2023).
No constants are given. Whether binding was seen depends on the method and setting.

The chains behind the UniProt entries cited, without tags or fusion partners. Where a name states a change or a piece, a line headed by the entry shows the natural chain unless it says otherwise.
UniProt Q13651: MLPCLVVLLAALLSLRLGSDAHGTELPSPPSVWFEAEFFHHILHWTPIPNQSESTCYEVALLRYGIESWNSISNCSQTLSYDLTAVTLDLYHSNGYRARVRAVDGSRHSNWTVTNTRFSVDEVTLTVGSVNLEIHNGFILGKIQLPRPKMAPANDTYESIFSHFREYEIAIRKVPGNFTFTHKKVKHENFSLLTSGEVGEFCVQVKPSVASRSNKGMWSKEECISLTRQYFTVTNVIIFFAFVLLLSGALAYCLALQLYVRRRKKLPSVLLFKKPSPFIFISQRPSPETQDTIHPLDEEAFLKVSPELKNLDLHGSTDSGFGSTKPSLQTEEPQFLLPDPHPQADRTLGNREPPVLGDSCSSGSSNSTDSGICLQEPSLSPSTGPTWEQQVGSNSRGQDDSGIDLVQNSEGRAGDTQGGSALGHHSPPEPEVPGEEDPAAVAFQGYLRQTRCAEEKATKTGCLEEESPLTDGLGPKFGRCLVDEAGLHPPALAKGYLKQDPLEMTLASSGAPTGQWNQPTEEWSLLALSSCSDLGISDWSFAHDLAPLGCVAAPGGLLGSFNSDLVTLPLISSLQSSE

Target: recombinant receptor human IL-10Ra protein (human) (UniProt Q13651)
Assay: BLI; ForteBio Octet RED96e, streptavidin biosensors loaded with 10 μg/mL recombinant human IL-10Ra (150 s); peptides at 3.12-100.0 μM, association 120 s; dissociation 120 s in PBS with 0.05% Tween20; both purified

B1: CG20 negative control peptide (peptide)
peptide: CPLNGSTVYGHLRHCLSCSG
binding: no binding (tested: 100.0 μM (highest concentration tested))
